SMILES strings stand for the structures. pIC50: −log10 of the molar value. Values joined by “and” are separate entries in the source; they are usually repeats but may differ in a detail not shown here. Equal entries are not always repeated. Where two headings read alike, the source gives them in different places.

In general, IC50 refers to the point on the concentration scale where inhibition reaches its midpoint. As usually defined, the pIC50 is −log10 of the IC50, conventionally taken in molar units.

This experiment deals with TSLP production in NHBE cells. Briefly: TSLP HTRF assay (TSLP production in poly I:C / IL-4 stimulated NHBE cells). The experiment is classed as cell-based, human. The procedure: For dose response curves determinations, stocks of test compounds at a concentration of 1.33x10^-3 M in DMSO were sequentially diluted at 1:4 dilution steps before further 1/50 dilution in BEBM medium containing 1x ITS and 0.1% BSA. For the highest 4 μM concentration test compounds were resuspended in DMSO at a concentration of 2.5x10^-3 M and diluted 1/25 in BEBM medium containing 1x ITS and 0.1% BSA before adding 1 μl to the wells containing the cells.
All subsequent steps were automated using a Sciclone® G3 workstation (Perkin Elmer) with a Twister™ II robot (Perkin Elmer). […] 1 μl of test compound solution prepared at 25x concentration was added to the wells containing NHBE cells. The plates were then incubated during 90 minutes at 37°C, 5% CO2, 90% humidity before adding poly I:C (Invivogen HMW Tirl-pic-5) and human IL-4 (Peprotech 200–04) stimulus in 4 μl of BEBM medium containing 1x ITS, 0.1% BSA and 0.1% DMSO using a Multidrop™. […] Cells were then incubated for 24h in the presence of test compounds and stimulus at 37°C, 5% CO2 and 90% humidity conditions. After the 24h incubation period the plates were transferred to a CyBi®-Well platform (CyBio AG) to collect 10 μl of the supernatants which were transferred to a new plate. TSLP levels in the supernatant were determined using a homogeneous Time-Resolved Fluorescence (HTRF) assay custom developed by Cisbio. […]

For the compound `C[C@@H]1CCN(C(=O)CC#N)C[C@@H]1N(C)c1ncnc2[nH]ccc12` [Tofacitinib, reference compound], for the setting “Homo sapiens, NHBE, 24 h, NHBE cells donor #1, poly I:C / IL-4, 24h, geometric mean, read-out: Inhibition of TSLP protein production (IC50, μM) (95% CI)”, the half-inhibitory concentration (IC50) came to 0.299 µM. Further, the pIC50 (individual values, donor #1, read-out: Inhibition of TSLP production in NHBE (IC50)) is 6.35 and 6.83 and 6.39.

The values are drawn from paper PMC5761851, “Application of a phenotypic drug discovery strategy to identify biological and chemical starting points for inhibition of TSLP production in lung epithelial cells” (PLoS ONE, 2018).
